Assay results: PMC5342555, “ATAD2 is an epigenetic reader of newly synthesized histone marks during DNA replication” (Oncotarget, 2016)

The chains behind the UniProt entries cited, without tags or fusion partners. Residues count along the entry.
UniProt P02545, residues 1-646: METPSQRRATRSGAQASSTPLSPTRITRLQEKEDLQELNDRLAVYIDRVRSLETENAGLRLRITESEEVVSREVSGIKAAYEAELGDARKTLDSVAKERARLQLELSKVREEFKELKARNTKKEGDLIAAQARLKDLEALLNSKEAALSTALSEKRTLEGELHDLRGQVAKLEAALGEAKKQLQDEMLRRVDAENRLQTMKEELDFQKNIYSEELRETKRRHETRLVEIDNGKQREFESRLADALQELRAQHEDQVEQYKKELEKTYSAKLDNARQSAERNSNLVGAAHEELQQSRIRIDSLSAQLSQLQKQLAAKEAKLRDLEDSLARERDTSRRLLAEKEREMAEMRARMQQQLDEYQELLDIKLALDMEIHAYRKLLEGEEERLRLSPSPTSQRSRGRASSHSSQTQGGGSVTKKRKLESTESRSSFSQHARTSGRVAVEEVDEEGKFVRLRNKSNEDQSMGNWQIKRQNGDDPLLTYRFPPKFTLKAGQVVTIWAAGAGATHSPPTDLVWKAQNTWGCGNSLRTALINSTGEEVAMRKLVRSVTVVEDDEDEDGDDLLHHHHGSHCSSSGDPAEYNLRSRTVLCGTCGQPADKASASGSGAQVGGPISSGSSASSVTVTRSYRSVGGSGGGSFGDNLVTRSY
UniProt P20700: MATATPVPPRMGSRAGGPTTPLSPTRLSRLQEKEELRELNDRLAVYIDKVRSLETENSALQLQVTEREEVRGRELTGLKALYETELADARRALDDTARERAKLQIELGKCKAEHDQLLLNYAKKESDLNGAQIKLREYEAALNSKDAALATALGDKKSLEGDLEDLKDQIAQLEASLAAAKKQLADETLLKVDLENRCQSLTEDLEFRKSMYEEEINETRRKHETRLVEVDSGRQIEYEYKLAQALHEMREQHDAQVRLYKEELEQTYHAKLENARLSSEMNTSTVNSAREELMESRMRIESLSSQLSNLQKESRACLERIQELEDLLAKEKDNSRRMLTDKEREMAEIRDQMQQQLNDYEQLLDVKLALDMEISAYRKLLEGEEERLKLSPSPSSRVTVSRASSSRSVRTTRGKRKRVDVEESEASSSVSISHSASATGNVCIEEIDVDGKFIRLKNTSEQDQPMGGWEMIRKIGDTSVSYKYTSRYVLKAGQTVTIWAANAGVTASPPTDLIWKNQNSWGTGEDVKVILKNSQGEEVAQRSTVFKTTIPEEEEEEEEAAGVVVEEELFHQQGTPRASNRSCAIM
UniProt P16401: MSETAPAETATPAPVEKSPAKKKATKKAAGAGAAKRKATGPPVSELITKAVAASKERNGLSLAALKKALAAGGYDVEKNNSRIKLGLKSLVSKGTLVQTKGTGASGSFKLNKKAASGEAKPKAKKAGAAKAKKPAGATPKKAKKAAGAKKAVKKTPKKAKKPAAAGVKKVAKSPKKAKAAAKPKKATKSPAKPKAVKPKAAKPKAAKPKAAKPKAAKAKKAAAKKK

Molecular target: T1, ATAD2 (ATPase family AAA domain-containing protein 2), endogenous (human (endogenous in MCF7)) (UniProt Q6PL18)
T1 sequence: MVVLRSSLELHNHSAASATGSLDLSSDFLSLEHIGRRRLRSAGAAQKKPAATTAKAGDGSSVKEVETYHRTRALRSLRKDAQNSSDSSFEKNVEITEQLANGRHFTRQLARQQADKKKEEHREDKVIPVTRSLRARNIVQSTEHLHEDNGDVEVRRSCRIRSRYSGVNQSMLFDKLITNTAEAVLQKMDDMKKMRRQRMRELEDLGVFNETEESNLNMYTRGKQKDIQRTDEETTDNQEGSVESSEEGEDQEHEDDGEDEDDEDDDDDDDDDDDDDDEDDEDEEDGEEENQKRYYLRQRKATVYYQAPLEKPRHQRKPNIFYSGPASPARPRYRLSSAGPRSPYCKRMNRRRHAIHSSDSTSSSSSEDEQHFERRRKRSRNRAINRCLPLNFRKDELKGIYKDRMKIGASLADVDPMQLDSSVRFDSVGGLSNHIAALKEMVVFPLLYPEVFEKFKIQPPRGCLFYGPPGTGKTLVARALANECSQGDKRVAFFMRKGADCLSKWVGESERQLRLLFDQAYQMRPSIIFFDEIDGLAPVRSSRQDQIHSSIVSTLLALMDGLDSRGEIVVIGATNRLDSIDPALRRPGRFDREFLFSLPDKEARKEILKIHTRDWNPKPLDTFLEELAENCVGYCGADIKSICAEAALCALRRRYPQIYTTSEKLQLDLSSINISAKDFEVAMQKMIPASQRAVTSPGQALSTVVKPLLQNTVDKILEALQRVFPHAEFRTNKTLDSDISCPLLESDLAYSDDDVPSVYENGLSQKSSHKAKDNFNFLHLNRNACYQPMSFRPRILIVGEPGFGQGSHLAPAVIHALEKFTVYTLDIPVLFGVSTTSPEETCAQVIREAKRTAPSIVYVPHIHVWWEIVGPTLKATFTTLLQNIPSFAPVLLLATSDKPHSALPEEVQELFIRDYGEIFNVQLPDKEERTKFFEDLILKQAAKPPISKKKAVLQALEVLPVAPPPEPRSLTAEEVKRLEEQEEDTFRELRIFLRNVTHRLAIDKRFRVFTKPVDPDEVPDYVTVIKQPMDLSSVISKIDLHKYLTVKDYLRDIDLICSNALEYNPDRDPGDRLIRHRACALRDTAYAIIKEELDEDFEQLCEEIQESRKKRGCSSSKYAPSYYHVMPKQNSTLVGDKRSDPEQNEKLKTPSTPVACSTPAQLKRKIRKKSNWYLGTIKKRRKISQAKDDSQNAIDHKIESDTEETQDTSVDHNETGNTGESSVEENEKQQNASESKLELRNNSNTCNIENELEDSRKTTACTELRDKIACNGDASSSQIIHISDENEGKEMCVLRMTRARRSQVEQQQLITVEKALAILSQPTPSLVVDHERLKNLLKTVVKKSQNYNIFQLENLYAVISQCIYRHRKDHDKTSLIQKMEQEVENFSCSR
Test: affinity purification with mass spectrometry; SILAC: immunoprecipitation with control antibody and antibody against ATAD2 on MCF7 cells grown in light (L) and heavy (H; K8, R10) medium; hits with log10 H/L higher than 1.2 in all triplicates

Substance | binding
prelamin A/C, endogenous (from UniProt P02545 1-646) | binds
lamin B1, endogenous (from UniProt P20700 1-586) | binds
histone H1.5, endogenous (from UniProt P16401 1-226) | binds

Results are given in words; binding and its absence hold for the method and conditions named. Binding seen in cells or lysates may run through a third protein. Here binding means that the protein was enriched with, or labelled near, the bait; the list need not be complete.
